Test results published in the supplement of paper PMC10735217.
Structures can show the parent of a compound that is named as a salt. This is one part of the list. This data set is noisy: repeats of one test often differ as much as different tests do.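 In a drug-repurposing library screen, luminescence reads luciferase driven by eight TEAD-binding elements, stably integrated into human kidney-derived cells. Compounds scoring over five robust Z scores above the plate mean are called hits.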

System: HEK293A TEAD-LUC reporter
Test: TEAD-luciferase reporter activity (YAP activation), robust Z score vs plate; higher = stronger YAP/TEAD activation
Conditions: 24 h

SMILES	TEAD-luciferase reporter activity (compound concentration: 200 nM)	TEAD-luciferase reporter activity (compound concentration: 2 uM)	TEAD-luciferase reporter activity (compound concentration: 10 uM)
C[C@@H](OC[C@@]1(c2ccccc2)CC[C@](C#N)(n2cn[nH]c2=O)CN1)c1cc(C(F)(F)F)cc(C(F)(F)F)c1	inactive: -0.683	inactive: 1.24	inactive: 1.17
C=CCNC(=O)[C@H]1N(C(=O)[C@@H](O)[C@H](Cc2ccccc2)NC(=O)c2cccc(O)c2C)CSC1(C)C	inactive: -1.31	inactive: 0.665	inactive: 0.198
CCC1(CC)COC(=O)NC1=O	inactive: -0.958	inactive: -2.67	inactive: -0.981
CN(C)[C@@H]1C(=O)C(C(N)=O)C(=O)[C@@]2(O)C(=O)C3C(=O)c4c(O)c(NC(=O)CN5CCCC5)cc(F)c4C[C@H]3C[C@@H]12 (some centres undefined) [eravacycline]	inactive: 0.594	inactive: -0.055	active: 11.3
CCCCc1ccc(O)cc1O [Rucinol]	inactive: 0.0121	active: 5.28	inactive: 1.38
COc1ccc(CCN2CCN(CCCc3ccccc3)CC2)cc1OC [cutamesine dihydrochloride]	inactive: -0.677	inactive: -1.44	inactive: 1.61
COCCCN1CC[C@@H](CNC(=O)c2cc(Cl)c(N)c3c2OC(C)(C)C3)[C@H](O)C1 [Revexepride]	inactive: -0.919	inactive: 0.459	inactive: 0.173
CCC(=O)N1Cc2ccccc2CC2(CCCN2CC2CCCC2)C1 (centres undefined)	active: 6.87		inactive: 0.0539
COc1ccccc1Oc1c(NS(=O)(=O)c2ccc(C)cn2)nc(-c2ccncc2)nc1OC [Avosentan]	inactive: 1.07	inactive: -1.13	inactive: 2.57
CC(C)Oc1ccc(C(=O)N[C@H](CNC(=O)CN(C)C)Cc2ccc(-c3cn4cccc([C@H](C)O)c4n3)cc2)cc1Cl	inactive: -0.00807	inactive: -0.666	inactive: 2.54
Cc1cc(O)c2c(O)c3c(O)cccc3cc2c1	inactive: -0.862	inactive: -1.94	inactive: 0.849
Nc1ncnc2c1ncn2CCOC[P@@]1(=O)OCC[C@@H](c2cccc(Cl)c2)O1 [Pradefovir]	inactive: -0.126		inactive: 0.024
CNC(=N)NC(=O)Nc1c(C)cccc1C [lidamidine]	inactive: -0.13	inactive: -0.611	inactive: 2.4
N#CCC(=O)N/N=C/c1c[n+]([O-])c2ccccc2[n+]1[O-]	inactive: 0.138	inactive: -0.66	inactive: -0.496
CCC1Cc2cc(CC(=O)O)ccc2O1 (centres undefined) [furofenac]	inactive: -1.23	inactive: -0.991	inactive: -1.48
Nc1ccc(S(=O)(=O)Nc2ccc(Cl)nn2)cc1	inactive: -2.31	inactive: -0.032	inactive: 0.341
CCCCNC(=O)NS(=O)(=O)c1ccc(N)cc1	inactive: -0.306	inactive: 2.26	inactive: 3.58
CS(=O)CC(=O)c1ccccn1 (centres undefined)	inactive: -1.61	inactive: 2.88	inactive: -1.51
COc1cc(C[C@@H](CO[C@@H]2O[C@H](CO)[C@@H](O)[C@H](O)[C@H]2O)[C@H](CO[C@@H]2O[C@H](CO)[C@@H](O)[C@H](O)[C@H]2O)Cc2ccc(O)c(OC)c2)ccc1O [Secoisolariciresinol diglucoside]	inactive: -0.664	inactive: -1.23	inactive: -1.24

SMILES	TEAD-luciferase reporter activity (compound concentration: 200 nM)	TEAD-luciferase reporter activity (compound concentration: 2 uM)	TEAD-luciferase reporter activity (compound concentration: 10 uM)
OC[C@H]1O[C@@H](n2cnc3c(NC4CCCCC4)ncnc32)[C@H](O)[C@@H]1O	inactive: 0.18	inactive: -1.47	inactive: -1.4
NC(=O)C(=O)N/N=C/c1ccc([N+](=O)[O-])o1 [Furamazone]	inactive: 0.0911	inactive: 0.185	inactive: 2.11
O=C(N[C@@H](Cc1ccc(O)cc1)C(=O)O)c1ccc(-c2ccc(C(F)(F)F)cc2)cc1	inactive: -0.858	inactive: -0.773	inactive: -0.566
CCc1oc2ccccc2c1C(=O)c1cc(I)c(O)c(I)c1	inactive: -1.02	inactive: -1.36	inactive: -2.42
Clc1cc(Cl)c2c(c1)N=C1CCCCCN1C2	inactive: 1.02	inactive: -0.965	inactive: 0.396
Cc1c(Nc2ncc[nH]2)ccc2c1OCCO2	inactive: 2.46	inactive: -1.53	inactive: -0.141
Clc1ccc(C(Cn2ccnc2)OCc2csc3c(Cl)cccc23)c(Cl)c1 (centres undefined) [arasertaconazole]		inactive: -1.78	
Clc1ccc(C(Cn2ccnc2)OCc2csc3c(Cl)cccc23)c(Cl)c1 (centres undefined) [Sertaconazole]	inactive: -1.07		inactive: -0.559
COc1ccccc1NS(=O)(=O)c1cccc(NC(=O)Nc2ccc(F)cc2)c1	inactive: -0.754	inactive: -1.13	inactive: -1.91
CCC(=O)SCC(=O)[C@@]1(O)CC[C@H]2[C@@H]3CCC4=CC(=O)CC[C@]4(C)[C@H]3[C@@H](O)C[C@@]21C	inactive: 0.305	inactive: 0.0994	inactive: 0.562
CCCNC(=O)c1cnc2n1CCc1ccccc1C21CCNCC1	inactive: 1.25	inactive: -1.72	inactive: -0.226
CC1(C)SC2C(NC(=O)[C@H](C(=O)O)c3ccsc3)C(=O)N2C1C(=O)O (some centres undefined) [Timentin]	inactive: -0.285	inactive: 0.0943	inactive: 3.42
C[C@@H](O)C1C(=O)N2C(C(=O)O)=C(S[C@@H]3CN[C@H](C(=O)N(C)C)C3)[C@H](C)C12 (some centres undefined) [Meropenem]		inactive: 0.541	
CCOc1ccc2nc(SC(C)(C(=O)O)c3ccccc3)sc2c1 (centres undefined) [tazasubrate]	inactive: 3.45	inactive: 1.81	inactive: 4.51
N=C(N)N1CCC[C@@H](CNC(=O)C[C@H](NS(=O)(=O)c2ccc3ccccc3c2)C(=O)N(CC(=O)O)C2CC2)C1	inactive: -2.06	inactive: -1.02	inactive: 0.294
Cc1ccc2c(c1)C(=O)C([N+](=O)[O-])C2=O (centres undefined)	active: 8.21	inactive: -0.291	inactive: -1.02
Cc1ncc(CSSCc2cnc(C)c(O)c2CO)c(CO)c1O	inactive: -1.02	inactive: 2.85	inactive: 1.62
CC1(C)S[C@@H]2[C@H](/N=C/N3CCCCCC3)C(=O)N2[C@H]1C(=O)O [mecillinam]		inactive: -1.94	
CC1(C)S[C@@H]2[C@H](/N=C/N3CCCCCC3)C(=O)N2[C@H]1C(=O)O	inactive: -1.59		inactive: -1.27

SMILES	TEAD-luciferase reporter activity (compound concentration: 200 nM)	TEAD-luciferase reporter activity (compound concentration: 2 uM)	TEAD-luciferase reporter activity (compound concentration: 10 uM)
Cc1ccc(C(=O)N2CCC(C(=O)N3CCC(N4Cc5ccccc5C4=O)CC3)CC2)cc1	inactive: 1.03		inactive: -0.28
Cc1cc2c(C(N)=O)cccc2n1-c1nc2c(c(NCc3ccccc3)n1)COCC2	inactive: -1.53	inactive: -3.02	inactive: -0.00137
CC(C)c1cccc(C(C)C)c1NC(=O)NCC1(c2ccccc2)CCCC1	inactive: -2.48	inactive: -0.384	inactive: -0.635
O=[N+]([O-])c1ccc(NN=C(c2ccc(O)cc2)c2ccc(O)cc2)c([N+](=O)[O-])c1 [sivifene]	inactive: -0.592	inactive: -0.108	inactive: -2.17
O=C(OC[C@H]1O[C@](O)(COC(=O)c2cccnc2)[C@@H](OC(=O)c2cccnc2)[C@@H]1OC(=O)c1cccnc1)c1cccnc1	inactive: 1.28	inactive: -1.19	inactive: 0.718
CCN(CC)C(=O)[C@]1(c2ccccc2)C[C@@H]1CN [Milnacipran]	inactive: -1.45		inactive: -0.34
CCN(CC)C(=O)[C@]1(c2ccccc2)C[C@@H]1CN [levomilnacipran]		inactive: 1.48	
COc1cc(Cc2cnc(N)nc2N)cc(OC)c1Br [brodimoprim]	inactive: 0.865	inactive: -2.93	inactive: 0.274
O=C(NCc1ccc2c(c1)OCO2)C1CN(C2CCCCC2)C(=O)N1 (centres undefined)	inactive: 0.94		active: 10.8
OCCN(CCO)c1nc(N2CCCCC2)c2nc(N(CCO)CCO)nc(N3CCCCC3)c2n1	inactive: -0.254		inactive: -0.157
OCCN(CCO)c1nc(N2CCCCC2)c2nc(N(CCO)CCO)nc(N3CCCCC3)c2n1 [Dipyridamole]		inactive: -1.54	
COc1cc(F)ccc1-c1cc(Nc2cc(CS(C)(=N)=O)ccn2)ncc1F (single isomer, unassigned; (+))	inactive: -0.253	inactive: -2.58	inactive: -1.45
C[C@H](NC(=O)c1ccccc1)C(=O)Nc1ccc(C2S/C(=N\c3cccc(F)c3)N(Cc3ccco3)C2=O)cc1 (some centres undefined)	inactive: 0.133	inactive: -0.478	inactive: -0.656
CC(C)(CO)[C@@H](O)C(=O)NCCC(=O)O	inactive: -1.07	inactive: -0.659	inactive: 3.21
CCOC(=O)C(Cc1ccc(-c2c(C)n(C)c(=O)n(C)c2=O)cc1)NC(=O)c1c(F)cccc1F (centres undefined)	inactive: -1.14	inactive: -1.28	inactive: 3.71
CC(C)CNc1nc(=O)c2cnn3c2n1CC=C3c1cccc(C(F)(F)F)c1	inactive: -0.894	inactive: 1.2	inactive: -0.623
CC(C)(Cc1c[nH]c2ccccc12)NCC(O)COc1ccccc1C#N (centres undefined) [Bucindolol]	inactive: -1.29	inactive: 0.0339	inactive: 1.51
Cc1cc2ncc(C(=O)NCC3CC3)cn2n1	inactive: -1.61		inactive: 1.24

Taken from above (4 entries):
SMILES	TEAD-luciferase reporter activity (compound concentration: 200 nM)	TEAD-luciferase reporter activity (compound concentration: 2 uM)	TEAD-luciferase reporter activity (compound concentration: 10 uM)
O=C(NCc1ccc2c(c1)OCO2)C1CN(C2CCCCC2)C(=O)N1 (centres undefined)	inactive: 0.94		active: 10.8
OCCN(CCO)c1nc(N2CCCCC2)c2nc(N(CCO)CCO)nc(N3CCCCC3)c2n1	inactive: -0.254		inactive: -0.157
OCCN(CCO)c1nc(N2CCCCC2)c2nc(N(CCO)CCO)nc(N3CCCCC3)c2n1 [Dipyridamole]		inactive: -1.54	
COc1cc(F)ccc1-c1cc(Nc2cc(CS(C)(=N)=O)ccn2)ncc1F (single isomer, unassigned; (+))	inactive: -0.253	inactive: -2.58	inactive: -1.45
